Results published in the supplement of paper PMC10849652.
The list shows a part of the results.

The chains behind the UniProt entries cited, without tags or fusion partners. Where a name states a change or a piece, a line headed by the entry shows the natural chain unless it says otherwise.
UniProt Q5SWX8: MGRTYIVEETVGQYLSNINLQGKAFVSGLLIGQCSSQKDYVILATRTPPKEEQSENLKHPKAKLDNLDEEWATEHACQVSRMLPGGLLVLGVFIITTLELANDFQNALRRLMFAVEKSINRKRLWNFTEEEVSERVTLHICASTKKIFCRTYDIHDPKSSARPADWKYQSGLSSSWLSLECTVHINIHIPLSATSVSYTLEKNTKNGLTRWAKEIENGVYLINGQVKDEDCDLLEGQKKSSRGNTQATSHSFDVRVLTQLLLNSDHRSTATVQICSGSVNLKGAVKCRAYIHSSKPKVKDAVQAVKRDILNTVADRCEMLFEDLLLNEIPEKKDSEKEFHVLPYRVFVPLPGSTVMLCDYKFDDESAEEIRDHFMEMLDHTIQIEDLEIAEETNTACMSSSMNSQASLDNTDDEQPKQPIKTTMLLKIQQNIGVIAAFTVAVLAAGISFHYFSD
UniProt Q01968: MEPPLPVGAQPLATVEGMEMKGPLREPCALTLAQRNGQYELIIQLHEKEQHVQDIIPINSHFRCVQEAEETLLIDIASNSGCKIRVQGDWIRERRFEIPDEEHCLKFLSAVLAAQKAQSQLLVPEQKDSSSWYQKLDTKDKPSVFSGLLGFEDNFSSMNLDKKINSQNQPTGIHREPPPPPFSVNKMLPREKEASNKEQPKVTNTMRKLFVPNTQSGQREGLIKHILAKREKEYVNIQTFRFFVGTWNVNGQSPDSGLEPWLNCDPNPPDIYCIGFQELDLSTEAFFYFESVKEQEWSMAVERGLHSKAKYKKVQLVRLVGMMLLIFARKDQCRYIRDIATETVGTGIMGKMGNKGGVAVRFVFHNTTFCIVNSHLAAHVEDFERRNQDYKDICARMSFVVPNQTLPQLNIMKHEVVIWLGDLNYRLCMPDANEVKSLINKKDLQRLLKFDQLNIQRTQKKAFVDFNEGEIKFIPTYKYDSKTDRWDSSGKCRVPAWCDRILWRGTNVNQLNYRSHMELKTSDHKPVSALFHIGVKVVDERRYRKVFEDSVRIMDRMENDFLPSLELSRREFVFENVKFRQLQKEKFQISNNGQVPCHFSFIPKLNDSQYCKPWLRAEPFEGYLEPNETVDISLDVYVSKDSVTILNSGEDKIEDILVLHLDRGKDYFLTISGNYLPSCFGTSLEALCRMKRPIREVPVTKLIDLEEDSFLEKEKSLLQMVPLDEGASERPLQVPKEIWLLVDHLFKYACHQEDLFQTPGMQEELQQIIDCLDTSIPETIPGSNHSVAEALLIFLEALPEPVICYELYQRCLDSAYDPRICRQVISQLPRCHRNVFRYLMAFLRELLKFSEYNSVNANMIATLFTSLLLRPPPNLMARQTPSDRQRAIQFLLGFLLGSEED
UniProt Q9BSD7: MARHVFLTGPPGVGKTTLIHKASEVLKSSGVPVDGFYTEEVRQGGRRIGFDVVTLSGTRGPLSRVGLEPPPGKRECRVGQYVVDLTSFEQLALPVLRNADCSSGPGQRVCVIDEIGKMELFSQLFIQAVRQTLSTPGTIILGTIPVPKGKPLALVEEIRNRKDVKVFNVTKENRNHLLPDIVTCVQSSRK
UniProt P37198: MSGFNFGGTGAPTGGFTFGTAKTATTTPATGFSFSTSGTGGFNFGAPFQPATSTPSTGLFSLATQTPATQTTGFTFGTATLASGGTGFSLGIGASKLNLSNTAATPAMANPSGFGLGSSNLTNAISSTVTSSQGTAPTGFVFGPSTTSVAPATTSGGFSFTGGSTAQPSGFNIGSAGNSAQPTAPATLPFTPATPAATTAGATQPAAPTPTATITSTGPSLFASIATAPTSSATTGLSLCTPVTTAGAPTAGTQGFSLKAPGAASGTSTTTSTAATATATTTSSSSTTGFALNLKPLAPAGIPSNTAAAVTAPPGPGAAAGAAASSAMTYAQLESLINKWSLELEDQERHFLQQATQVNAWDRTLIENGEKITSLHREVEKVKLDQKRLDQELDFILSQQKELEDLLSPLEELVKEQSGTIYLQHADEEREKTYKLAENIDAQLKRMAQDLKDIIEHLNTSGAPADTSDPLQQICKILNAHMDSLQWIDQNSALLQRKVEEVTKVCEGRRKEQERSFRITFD
UniProt Q96MF7: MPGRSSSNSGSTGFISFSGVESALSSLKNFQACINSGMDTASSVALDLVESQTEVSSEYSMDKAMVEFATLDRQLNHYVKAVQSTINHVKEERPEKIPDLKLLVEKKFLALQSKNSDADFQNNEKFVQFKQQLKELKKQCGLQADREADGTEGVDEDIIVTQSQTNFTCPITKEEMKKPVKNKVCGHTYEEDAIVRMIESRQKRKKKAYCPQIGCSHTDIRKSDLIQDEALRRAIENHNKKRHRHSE
UniProt Q9NPF4: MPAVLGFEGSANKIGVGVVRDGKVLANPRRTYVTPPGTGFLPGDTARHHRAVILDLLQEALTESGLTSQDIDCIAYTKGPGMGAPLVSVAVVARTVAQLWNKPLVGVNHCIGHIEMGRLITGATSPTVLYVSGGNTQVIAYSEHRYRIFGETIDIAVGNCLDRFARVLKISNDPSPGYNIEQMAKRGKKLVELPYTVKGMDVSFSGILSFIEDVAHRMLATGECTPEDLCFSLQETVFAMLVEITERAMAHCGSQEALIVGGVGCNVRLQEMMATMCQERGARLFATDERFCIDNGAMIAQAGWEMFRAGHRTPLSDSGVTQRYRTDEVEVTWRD
UniProt Q13438: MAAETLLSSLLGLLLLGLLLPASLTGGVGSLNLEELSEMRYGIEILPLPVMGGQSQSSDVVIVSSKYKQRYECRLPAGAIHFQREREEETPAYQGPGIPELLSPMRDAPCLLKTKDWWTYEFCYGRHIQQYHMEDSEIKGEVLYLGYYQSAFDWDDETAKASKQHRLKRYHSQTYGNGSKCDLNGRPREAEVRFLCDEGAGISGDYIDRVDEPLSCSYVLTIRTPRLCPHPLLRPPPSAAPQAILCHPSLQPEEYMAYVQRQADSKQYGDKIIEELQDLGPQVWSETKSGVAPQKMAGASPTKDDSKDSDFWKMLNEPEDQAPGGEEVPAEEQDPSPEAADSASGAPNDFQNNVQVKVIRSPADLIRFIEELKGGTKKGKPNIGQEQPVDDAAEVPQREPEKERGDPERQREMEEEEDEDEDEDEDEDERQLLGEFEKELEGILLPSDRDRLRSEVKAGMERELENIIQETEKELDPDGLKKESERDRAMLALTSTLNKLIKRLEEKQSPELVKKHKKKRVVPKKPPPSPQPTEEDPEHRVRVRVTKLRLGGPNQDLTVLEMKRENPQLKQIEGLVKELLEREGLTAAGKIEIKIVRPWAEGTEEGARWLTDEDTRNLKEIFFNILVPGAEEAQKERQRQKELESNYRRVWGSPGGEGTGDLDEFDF
UniProt Q7Z3B4: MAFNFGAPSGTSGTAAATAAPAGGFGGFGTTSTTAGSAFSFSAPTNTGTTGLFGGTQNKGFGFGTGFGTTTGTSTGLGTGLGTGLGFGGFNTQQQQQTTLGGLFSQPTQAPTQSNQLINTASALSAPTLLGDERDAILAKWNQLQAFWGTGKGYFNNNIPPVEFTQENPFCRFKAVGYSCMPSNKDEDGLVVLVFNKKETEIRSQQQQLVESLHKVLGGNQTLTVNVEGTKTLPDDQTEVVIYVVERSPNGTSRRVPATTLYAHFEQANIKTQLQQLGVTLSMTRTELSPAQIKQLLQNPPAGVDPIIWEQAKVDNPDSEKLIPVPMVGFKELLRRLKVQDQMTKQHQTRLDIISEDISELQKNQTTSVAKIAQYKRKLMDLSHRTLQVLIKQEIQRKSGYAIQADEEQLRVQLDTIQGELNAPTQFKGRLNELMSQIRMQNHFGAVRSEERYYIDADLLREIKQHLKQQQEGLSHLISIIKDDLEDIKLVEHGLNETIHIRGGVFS
UniProt Q8TCD5: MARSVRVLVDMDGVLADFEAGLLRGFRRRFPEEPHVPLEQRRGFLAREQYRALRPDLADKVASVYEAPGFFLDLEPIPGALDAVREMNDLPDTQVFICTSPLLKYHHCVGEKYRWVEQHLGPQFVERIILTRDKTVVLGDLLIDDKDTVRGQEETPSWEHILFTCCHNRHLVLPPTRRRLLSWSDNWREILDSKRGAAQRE
UniProt P11940, whole entry, looked up: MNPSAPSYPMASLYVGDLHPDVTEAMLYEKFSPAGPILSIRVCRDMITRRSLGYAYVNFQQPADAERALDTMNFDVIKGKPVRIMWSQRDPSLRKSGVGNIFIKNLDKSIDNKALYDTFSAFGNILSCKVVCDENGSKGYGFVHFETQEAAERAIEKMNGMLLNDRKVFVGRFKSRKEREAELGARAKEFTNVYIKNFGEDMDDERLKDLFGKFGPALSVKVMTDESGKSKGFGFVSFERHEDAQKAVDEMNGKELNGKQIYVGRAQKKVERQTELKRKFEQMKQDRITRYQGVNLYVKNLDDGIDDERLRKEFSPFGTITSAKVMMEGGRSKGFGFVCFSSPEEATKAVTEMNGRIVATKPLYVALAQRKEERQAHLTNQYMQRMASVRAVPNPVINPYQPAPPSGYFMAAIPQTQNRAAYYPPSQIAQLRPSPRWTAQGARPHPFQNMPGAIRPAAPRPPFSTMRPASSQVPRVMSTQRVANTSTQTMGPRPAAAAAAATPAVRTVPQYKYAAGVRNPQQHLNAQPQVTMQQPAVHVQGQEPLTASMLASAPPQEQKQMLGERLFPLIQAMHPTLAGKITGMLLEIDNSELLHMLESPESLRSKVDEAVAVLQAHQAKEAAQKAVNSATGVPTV
UniProt Q9Y5Y2: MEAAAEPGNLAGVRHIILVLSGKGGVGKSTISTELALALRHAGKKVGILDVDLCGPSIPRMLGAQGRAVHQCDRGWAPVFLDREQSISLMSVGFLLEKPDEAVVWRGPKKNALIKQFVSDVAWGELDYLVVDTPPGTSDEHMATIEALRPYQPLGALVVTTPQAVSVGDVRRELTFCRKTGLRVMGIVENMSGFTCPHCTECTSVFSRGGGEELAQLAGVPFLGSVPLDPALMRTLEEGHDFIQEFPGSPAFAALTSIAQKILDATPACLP
UniProt O43809, whole entry, looked up: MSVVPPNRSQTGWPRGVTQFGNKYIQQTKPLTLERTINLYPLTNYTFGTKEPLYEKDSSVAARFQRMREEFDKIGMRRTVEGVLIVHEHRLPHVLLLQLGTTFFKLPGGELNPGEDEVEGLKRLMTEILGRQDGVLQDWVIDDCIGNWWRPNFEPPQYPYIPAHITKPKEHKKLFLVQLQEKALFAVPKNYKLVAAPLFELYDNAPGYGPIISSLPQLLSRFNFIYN
UniProt Q12769: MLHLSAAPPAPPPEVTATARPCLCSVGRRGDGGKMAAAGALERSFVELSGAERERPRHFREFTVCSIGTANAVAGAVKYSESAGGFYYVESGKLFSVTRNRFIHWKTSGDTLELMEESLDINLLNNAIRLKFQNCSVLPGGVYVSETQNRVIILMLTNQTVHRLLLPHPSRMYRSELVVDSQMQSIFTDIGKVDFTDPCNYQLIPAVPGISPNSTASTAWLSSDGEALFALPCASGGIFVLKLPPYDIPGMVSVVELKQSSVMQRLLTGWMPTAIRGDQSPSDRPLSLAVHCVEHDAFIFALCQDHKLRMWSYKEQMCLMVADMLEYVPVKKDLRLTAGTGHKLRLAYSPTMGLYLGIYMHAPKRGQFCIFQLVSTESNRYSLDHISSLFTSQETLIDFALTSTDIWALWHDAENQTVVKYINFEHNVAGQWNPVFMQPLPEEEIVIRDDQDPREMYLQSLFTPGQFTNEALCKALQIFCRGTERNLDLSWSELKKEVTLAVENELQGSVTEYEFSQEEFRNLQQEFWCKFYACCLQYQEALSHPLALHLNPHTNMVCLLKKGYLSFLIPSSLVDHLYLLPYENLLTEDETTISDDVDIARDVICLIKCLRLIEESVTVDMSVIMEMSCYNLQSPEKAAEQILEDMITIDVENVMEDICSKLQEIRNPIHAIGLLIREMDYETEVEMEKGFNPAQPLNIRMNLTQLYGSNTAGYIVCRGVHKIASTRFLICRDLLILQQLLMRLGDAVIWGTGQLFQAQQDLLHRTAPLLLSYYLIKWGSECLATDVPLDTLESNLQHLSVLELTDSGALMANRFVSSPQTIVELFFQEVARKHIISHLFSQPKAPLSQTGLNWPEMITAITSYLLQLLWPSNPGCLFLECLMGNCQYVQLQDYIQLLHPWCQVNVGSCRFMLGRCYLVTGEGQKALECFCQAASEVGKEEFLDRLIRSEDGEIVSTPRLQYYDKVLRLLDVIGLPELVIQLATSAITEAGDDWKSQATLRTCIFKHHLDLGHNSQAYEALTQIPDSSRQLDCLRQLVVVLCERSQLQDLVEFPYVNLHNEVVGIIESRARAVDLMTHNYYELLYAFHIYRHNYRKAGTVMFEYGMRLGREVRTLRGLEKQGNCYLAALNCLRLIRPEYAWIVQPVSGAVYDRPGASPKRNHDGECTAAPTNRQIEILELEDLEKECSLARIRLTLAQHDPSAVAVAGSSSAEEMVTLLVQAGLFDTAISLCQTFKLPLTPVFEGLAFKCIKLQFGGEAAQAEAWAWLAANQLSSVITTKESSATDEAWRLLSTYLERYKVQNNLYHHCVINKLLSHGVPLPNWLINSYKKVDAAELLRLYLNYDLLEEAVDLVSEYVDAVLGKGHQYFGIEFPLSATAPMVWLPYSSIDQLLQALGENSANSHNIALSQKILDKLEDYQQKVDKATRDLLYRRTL

Legend:
Assay in all cases: log2 fold change, soluble protein after heating vs DMSO (PISA); higher = thermal stabilisation; K562 cells, 10 uM, 30 min; active = over 0.2 and 3.5 SD of the protein, either way, in both replicates (recomputed)
bafetinib = compound: Cc1ccc(NC(=O)c2ccc(CN3CC[C@H](N(C)C)C3)c(C(F)(F)F)c2)cc1Nc1nccc(-c2cncnc2)n1 [bafetinib]
Outline: (§1)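 Quantification of soluble protein used TMTpro 16plex LC-MS/MS, with channel sums equalised. Samples were the supernatant after 21,000xg for 90 min of pooled aliquots from K562 cells (2×10^6 cells/mL) treated with 10 μM compound for 30 min, heated for 3 min over 48°C-58°C, and extracted in PBS with 0.5% NP-40 at 4°C. Values, from duplicates, describe thermal stability against control samples on a log2 fold-change scale.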

[1] = compound: Cc1cccc(CC(=O)N2CCc3c2ccc(-c2cn(C)c4ncnc(N)c24)c3F)n1
Outline: as §1

nilotinib = compound: Cc1cn(-c2cc(NC(=O)c3ccc(C)c(Nc4nccc(-c5cccnc5)n4)c3)cc(C(F)(F)F)c2)cn1 [nilotinib]
Outline: as §1

[2] = compound: Cc1nc(Nc2n[nH]c3c2CN(C(=O)N[C@H](CN(C)C)c2ccccc2)C3(C)C)c2sccc2n1
Outline: as §1

dasatinib = compound: Cc1nc(Nc2ncc(C(=O)Nc3c(C)cccc3Cl)s2)cc(N2CCN(CCO)CC2)n1 [dasatinib]
Outline: as §1

[3] = compound: Cc1ncc(-c2ccnc(Nc3ccc(S(C)(=O)=O)cc3)n2)n1C(C)C
Outline: as §1

[4] = compound: Cn1cc(-c2ccc3c(c2)CCN3C(=O)Cc2cccc(C(F)(F)F)c2)c2c(N)ncnc21
Outline: as §1

[5] = compound: Cn1cc(-c2ccc3nnc(C(F)(F)c4ccc5ncccc5c4)n3n2)cn1
Outline: as §1

tipifarnib = compound: Cn1cncc1[C@@](N)(c1ccc(Cl)cc1)c1ccc2c(c1)c(-c1cccc(Cl)c1)cc(=O)n2C [tipifarnib]
Outline: as §1

mubritinib = compound: FC(F)(F)c1ccc(/C=C/c2nc(COc3ccc(CCCCn4ccnn4)cc3)co2)cc1 [mubritinib]
Outline: as §1

[6] = compound: NC(=O)Nc1cc(-c2cccc(F)c2)sc1C(=O)N[C@H]1CCCNC1
Outline: as §1

[7] = compound: NC(=O)c1cnc(N[C@@H]2CCCC[C@@H]2N)nc1Nc1cccc(-n2nccn2)c1
Outline: as §1

[8] = compound: NC1(c2ccc(-c3nc4ccn5c(=O)[nH]nc5c4cc3-c3ccccc3)cc2)CCC1
Outline: as §1

[9] = compound: NCC(=O)Nc1ccc(-n2nc(C(F)(F)F)cc2-c2ccc3c(ccc4ccccc43)c2)cc1
Outline: as §1

entinostat = compound: Nc1ccccc1NC(=O)c1ccc(CNC(=O)OCc2cccnc2)cc1 [entinostat]
Outline: as §1

vorinostat = compound: O=C(CCCCCCC(=O)Nc1ccccc1)NO [vorinostat]
Outline: as §1

citarinostat = compound: O=C(CCCCCCNC(=O)c1cnc(N(c2ccccc2)c2ccccc2Cl)nc1)NO [citarinostat]
Outline: as §1

silmitasertib = compound: O=C(O)c1ccc2c(c1)nc(Nc1cccc(Cl)c1)c1ccncc12 [silmitasertib]
Outline: as §1

[10] = compound: O=C1NC(=O)C(c2cnc3ccccn23)=C1c1cn2c3c(cc(F)cc13)CN(C(=O)N1CCCCC1)CC2
Outline: as §1

[11] = compound: c1cc(OCCN2CCCCC2)cc(-c2n[nH]c3ccc(-c4nnc[nH]4)cc23)c1
Outline: as §1

Measured: log2 fold change

OTULIN (UniProt Q96BN8)
inactive: bafetinib -0.039 | [1] 0.066 | nilotinib -0.091 | [2] -0.124 | dasatinib -0.169 | [3] 0.033 | [4] -0.051 | [5] 0.235 | tipifarnib -0.081 | mubritinib 0.152 | [6] 0.008 | [7] -0.017 | [8] -0.183 | [9] -0.093 | entinostat 0.097 | vorinostat 0.038 | citarinostat -0.005 | silmitasertib 0.086 | [10] -0.143 | [11] -0.077

ODR4 (UniProt Q5SWX8)
inactive: bafetinib 0.034 | [1] 0.035 | nilotinib -0.013 | [2] -0.004 | dasatinib -0.072 | [3] -0.033 | [4] 0.022 | [5] -0.002 | tipifarnib -0.088 | mubritinib 0.065 | [6] -0.039 | [7] 0.03 | [8] -0.139 | [9] -0.033 | entinostat -0.043 | vorinostat -0.029 | citarinostat 0.025 | silmitasertib -0.015 | [10] -0.014 | [11] -0.049

NUP155 (UniProt O75694)
inactive: bafetinib -0.005 | [1] 0.107 | nilotinib -0.007 | [2] -0.005 | dasatinib -0.152 | [3] 0.006 | [4] 0.094 | [5] 0.025 | tipifarnib -0.05 | mubritinib 0.11 | [6] 0.003 | [7] -0.015 | [8] -0.198 | [9] -0.049 | entinostat 0.048 | vorinostat 0.129 | citarinostat 0.098 | silmitasertib -0.032 | [10] -0.009 | [11] 0.004

OCRL (UniProt Q01968)
inactive: bafetinib 0.121 | [1] 0.034 | nilotinib -0.118 | [2] 0.142 | dasatinib 0.142 | [3] 0.027 | [4] 0.06 | [5] -0.002 | tipifarnib -0.139 | mubritinib -0.048 | [6] -0.07 | [7] 0.011 | [8] -0.046 | [9] 0.024 | entinostat 0.01 | vorinostat 0.018 | citarinostat 0.12 | silmitasertib -0.182 | [10] 0.024 | [11] -0.1

NTPCR (UniProt Q9BSD7)
inactive: bafetinib -0.003 | [1] 0.003 | nilotinib 0.071 | [2] -0.002 | dasatinib -0.027 | [3] 0.015 | [4] 0.041 | [5] 0.047 | tipifarnib -0.104 | mubritinib 0 | [6] -0.008 | [7] -0.052 | [8] -0.124 | [9] -0.062 | entinostat -0.008 | vorinostat 0.042 | citarinostat 0.103 | silmitasertib -0.099 | [10] -0.007 | [11] 0.035

NUP62 (UniProt P37198)
inactive: bafetinib -0.004 | [1] -0.018 | nilotinib -0.055 | [2] -0.027 | dasatinib -0.026 | [3] -0.006 | [4] -0.047 | [5] -0.073 | tipifarnib -0.032 | mubritinib 0.022 | [6] -0.017 | [7] -0.018 | [8] -0.041 | [9] -0.043 | entinostat 0.051 | vorinostat 0.024 | citarinostat 0.016 | silmitasertib 0.048 | [10] -0.045 | [11] -0.084

NSMCE2 (UniProt Q96MF7)
inactive: bafetinib -0.059 | nilotinib 0.014 | [2] -0.202 | dasatinib 0.025 | [3] 0.016 | [4] 0.016 | [5] -0.104 | tipifarnib 0.008 | mubritinib 0.009 | [6] 0.065 | [7] -0.027 | [8] -0.008 | [9] -0.046 | entinostat -0.115 | vorinostat 0.128 | citarinostat -0.04 | silmitasertib 0.055 | [10] -0.068 | [11] -0.069
active: [1] 0.282

NUDT1 (UniProt P36639)
inactive: bafetinib 0.129 | [1] 0.052 | nilotinib -0.087 | [2] 0.271 | dasatinib -0.127 | [3] 0.301 | [4] 0.194 | [5] 0.06 | tipifarnib -0.069 | mubritinib 0.137 | [6] 0.159 | [7] 0.145 | [9] -0.129 | entinostat -0.026 | vorinostat 0.033 | citarinostat -0.073 | silmitasertib -0.091 | [10] 0.791 | [11] 0.572
active: [8] 1.01

OSGEP (UniProt Q9NPF4)
inactive: bafetinib -0.037 | [1] 0.026 | nilotinib 0.001 | [2] -0.003 | dasatinib 0.002 | [3] 0.058 | [4] 0.029 | [5] 0 | tipifarnib 0.001 | mubritinib 0.033 | [6] -0.012 | [7] 0.006 | [8] -0.018 | [9] -0.028 | entinostat -0.025 | vorinostat -0.017 | citarinostat -0.026 | silmitasertib -0.008 | [10] -0.027 | [11] -0.064

OS9 (UniProt Q13438)
inactive: bafetinib -0.032 | [1] 0.012 | nilotinib -0.041 | [2] 0.025 | dasatinib 0.03 | [3] -0.029 | [4] -0.014 | [5] -0.009 | tipifarnib 0.062 | mubritinib -0.042 | [6] 0.007 | [7] -0.001 | [8] 0.006 | [9] -0.017 | entinostat 0.002 | vorinostat 0.012 | citarinostat -0.02 | silmitasertib 0.013 | [10] 0.045 | [11] -0.075

NUP54 (UniProt Q7Z3B4)
inactive: bafetinib 0.023 | [1] 0.036 | nilotinib -0.008 | [2] -0.016 | dasatinib -0.167 | [3] -0.03 | [4] 0.087 | [5] 0.005 | tipifarnib -0.072 | mubritinib 0.1 | [6] -0.053 | [7] -0.014 | [8] -0.085 | [9] -0.052 | entinostat 0.075 | vorinostat 0.047 | citarinostat 0.076 | silmitasertib 0.018 | [10] -0.074 | [11] -0.043

NT5C (UniProt Q8TCD5)
inactive: bafetinib -0.06 | [1] 0.026 | nilotinib -0.01 | [2] 0.013 | dasatinib 0.031 | [3] -0.009 | [4] 0.005 | [5] 0.001 | tipifarnib 0.02 | mubritinib 0.019 | [6] -0.005 | [7] 0.009 | [8] 0.01 | [9] 0.011 | entinostat -0.056 | vorinostat 0.008 | citarinostat -0.002 | silmitasertib -0.01 | [10] -0.065 | [11] -0.03

PABPC1 (UniProt P11940)
inactive: bafetinib 0.047 | [1] -0.019 | nilotinib -0.024 | [2] -0.007 | dasatinib 0.047 | [3] 0.027 | [4] -0.115 | [5] -0.028 | tipifarnib 0.047 | mubritinib -0.029 | [6] -0.015 | [7] 0.034 | [8] 0.129 | [9] -0.012 | entinostat 0.011 | vorinostat 0.029 | citarinostat -0.068 | silmitasertib 0.019 | [10] 0.091 | [11] -0.112

NUBP2 (UniProt Q9Y5Y2)
inactive: bafetinib -0.019 | [1] -0.075 | nilotinib -0.127 | [2] -0.049 | dasatinib -0.155 | [3] -0.061 | [4] 0.088 | [5] -0.001 | tipifarnib 0.02 | mubritinib -0.041 | [6] -0.064 | [7] 0.054 | [8] -0.117 | [9] 0.026 | entinostat 0.019 | vorinostat 0.057 | citarinostat 0.007 | silmitasertib -0.03 | [10] 0.001 | [11] -0.012

NUDT21 (UniProt O43809)
inactive: bafetinib 0.074 | [1] -0.071 | nilotinib 0.033 | dasatinib 0.031 | [3] 0.051 | [4] 0.029 | [5] -0.039 | tipifarnib -0.007 | mubritinib -0.008 | [6] -0.042 | [7] -0.002 | [8] 0.049 | [9] -0.007 | entinostat 0.037 | vorinostat -0.078 | citarinostat 0.029 | silmitasertib -0.124 | [10] 0.062 | [11] -0.131
active: [2] -0.798

NUP160 (UniProt Q12769)
inactive: bafetinib -0.127 | [1] 0.043 | nilotinib -0.078 | [2] -0.136 | dasatinib -0.045 | [3] -0.06 | [4] -0.025 | [5] -0.034 | tipifarnib -0.042 | mubritinib -0.042 | [6] 0.031 | [7] -0.058 | [8] -0.066 | [9] -0.062 | entinostat 0.008 | vorinostat 0.05 | citarinostat 0.018 | silmitasertib 0.075 | [10] 0.021 | [11] -0.09
